# Results are given in words; binding and its absence hold for the method and conditions named. In cells and extracts the contact can be indirect. Some entries that bind do so weakly or less than the wild type.
# The chains behind the UniProt entries cited, without tags or fusion partners.
# UniProt P43694: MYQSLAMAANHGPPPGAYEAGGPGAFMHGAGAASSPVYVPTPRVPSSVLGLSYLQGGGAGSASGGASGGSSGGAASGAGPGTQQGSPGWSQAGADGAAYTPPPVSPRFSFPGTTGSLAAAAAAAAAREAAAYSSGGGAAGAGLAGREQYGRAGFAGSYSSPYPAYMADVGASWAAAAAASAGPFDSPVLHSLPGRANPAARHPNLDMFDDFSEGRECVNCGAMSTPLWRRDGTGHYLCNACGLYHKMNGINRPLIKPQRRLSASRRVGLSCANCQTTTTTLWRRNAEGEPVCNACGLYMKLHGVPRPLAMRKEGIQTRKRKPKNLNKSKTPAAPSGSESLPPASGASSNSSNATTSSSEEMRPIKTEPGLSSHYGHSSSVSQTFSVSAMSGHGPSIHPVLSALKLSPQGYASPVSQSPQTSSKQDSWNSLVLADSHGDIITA
# UniProt P12883: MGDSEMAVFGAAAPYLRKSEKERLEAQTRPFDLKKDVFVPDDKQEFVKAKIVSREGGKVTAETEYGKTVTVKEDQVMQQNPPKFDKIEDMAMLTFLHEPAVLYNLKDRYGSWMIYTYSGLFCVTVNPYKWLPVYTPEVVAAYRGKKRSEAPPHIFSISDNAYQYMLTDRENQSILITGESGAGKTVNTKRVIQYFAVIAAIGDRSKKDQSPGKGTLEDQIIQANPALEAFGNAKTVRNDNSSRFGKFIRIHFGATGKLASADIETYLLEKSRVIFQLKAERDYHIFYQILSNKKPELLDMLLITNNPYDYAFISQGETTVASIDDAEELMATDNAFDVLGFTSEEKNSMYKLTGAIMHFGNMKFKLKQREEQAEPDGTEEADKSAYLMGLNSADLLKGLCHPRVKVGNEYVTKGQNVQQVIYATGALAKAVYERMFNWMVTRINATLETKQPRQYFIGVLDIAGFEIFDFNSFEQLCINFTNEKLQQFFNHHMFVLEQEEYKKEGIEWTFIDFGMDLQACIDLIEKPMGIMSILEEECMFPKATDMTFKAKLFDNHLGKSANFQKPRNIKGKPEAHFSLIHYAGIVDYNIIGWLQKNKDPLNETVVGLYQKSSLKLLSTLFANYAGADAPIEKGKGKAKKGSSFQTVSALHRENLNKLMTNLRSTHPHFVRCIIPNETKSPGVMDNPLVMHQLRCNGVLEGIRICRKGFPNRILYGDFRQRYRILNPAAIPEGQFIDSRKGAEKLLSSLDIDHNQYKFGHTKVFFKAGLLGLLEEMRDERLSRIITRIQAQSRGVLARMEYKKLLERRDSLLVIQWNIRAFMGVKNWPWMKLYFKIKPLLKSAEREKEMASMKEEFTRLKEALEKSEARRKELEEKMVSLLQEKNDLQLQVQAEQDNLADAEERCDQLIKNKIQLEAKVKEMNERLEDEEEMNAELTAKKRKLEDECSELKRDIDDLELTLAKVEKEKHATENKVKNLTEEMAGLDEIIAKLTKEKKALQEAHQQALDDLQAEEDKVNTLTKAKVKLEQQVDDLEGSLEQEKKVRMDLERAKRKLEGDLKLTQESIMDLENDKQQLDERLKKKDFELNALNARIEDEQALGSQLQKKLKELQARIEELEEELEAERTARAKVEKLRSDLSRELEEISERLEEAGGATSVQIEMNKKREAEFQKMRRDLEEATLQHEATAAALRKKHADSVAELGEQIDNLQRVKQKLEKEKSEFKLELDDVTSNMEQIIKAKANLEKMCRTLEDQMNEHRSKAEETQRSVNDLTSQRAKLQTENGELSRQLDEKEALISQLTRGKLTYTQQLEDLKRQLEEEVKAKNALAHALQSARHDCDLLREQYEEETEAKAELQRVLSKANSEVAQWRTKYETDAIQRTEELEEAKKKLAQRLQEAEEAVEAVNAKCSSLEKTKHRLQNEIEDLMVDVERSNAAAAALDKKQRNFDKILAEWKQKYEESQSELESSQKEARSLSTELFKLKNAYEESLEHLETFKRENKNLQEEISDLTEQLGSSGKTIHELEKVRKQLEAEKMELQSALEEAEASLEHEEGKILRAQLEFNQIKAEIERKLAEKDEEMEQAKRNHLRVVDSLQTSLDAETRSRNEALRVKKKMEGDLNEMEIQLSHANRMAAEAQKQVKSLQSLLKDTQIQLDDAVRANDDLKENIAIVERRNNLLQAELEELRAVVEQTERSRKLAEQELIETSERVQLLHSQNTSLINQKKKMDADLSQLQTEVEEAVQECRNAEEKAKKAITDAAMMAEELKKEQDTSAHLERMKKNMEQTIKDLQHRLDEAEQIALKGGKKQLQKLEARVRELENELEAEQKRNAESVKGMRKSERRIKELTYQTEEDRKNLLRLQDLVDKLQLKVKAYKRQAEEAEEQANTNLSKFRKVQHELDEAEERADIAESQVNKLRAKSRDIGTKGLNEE
# Legend:
# [1] = target: T1, Fibroblast growth factor 12 (FGF12) (UniProt P61328); assay: co-IP
# T1 sequence: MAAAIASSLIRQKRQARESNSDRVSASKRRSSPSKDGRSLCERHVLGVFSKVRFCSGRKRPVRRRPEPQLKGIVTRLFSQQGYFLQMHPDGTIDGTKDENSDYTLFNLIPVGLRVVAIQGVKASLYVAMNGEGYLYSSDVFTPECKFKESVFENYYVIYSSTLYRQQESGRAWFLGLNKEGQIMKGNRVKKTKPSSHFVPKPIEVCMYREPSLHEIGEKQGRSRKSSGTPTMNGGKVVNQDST
# [2] = target: T2, Fibroblast growth factor 12 (FGF12) (human (endogenous in iPS-cardiomyocytes)) (UniProt P61328); assay: co-IP
# T2 sequence: T1 sequence
Substance,binding [1],binding [2]
GATA binding protein 4 (GATA4) (from UniProt P43694 1-442),binds,
MYH7 (thick myofilament marker) (from UniProt P12883 1-1935),,binds

# Reference: article doi:10.1101/2023.12.20.572709
